Results are given in words; binding and its absence hold for the method and conditions named. In cells and extracts the contact can be indirect. Some results given as binding are weak or reduced against the parent protein; the word gives no strength. Blank lines part the entries; values can stand above or below the binder they belong to.
Target: Ino80-myc (INO80-9MYC) (S. cerevisiae (endogenous locus, W303 background)) (UniProt P53115)
Test: co-IP; yeast whole cell lysates (bead beating; 50-mM HEPES-KOH pH 7.5, 100-mM NaCl, 1-mM EDTA, 0.25% Nonidet-P40, 10% glycerol); Ino80-myc precipitated with anti-Myc 9E10.2 and Protein A-Sepharose, 4°C; washes up to 250-mM NaCl; blot probed with anti-Lys20

Protein sequences, listed by entry. Tags and fused reporters are not part of them.
UniProt P53115: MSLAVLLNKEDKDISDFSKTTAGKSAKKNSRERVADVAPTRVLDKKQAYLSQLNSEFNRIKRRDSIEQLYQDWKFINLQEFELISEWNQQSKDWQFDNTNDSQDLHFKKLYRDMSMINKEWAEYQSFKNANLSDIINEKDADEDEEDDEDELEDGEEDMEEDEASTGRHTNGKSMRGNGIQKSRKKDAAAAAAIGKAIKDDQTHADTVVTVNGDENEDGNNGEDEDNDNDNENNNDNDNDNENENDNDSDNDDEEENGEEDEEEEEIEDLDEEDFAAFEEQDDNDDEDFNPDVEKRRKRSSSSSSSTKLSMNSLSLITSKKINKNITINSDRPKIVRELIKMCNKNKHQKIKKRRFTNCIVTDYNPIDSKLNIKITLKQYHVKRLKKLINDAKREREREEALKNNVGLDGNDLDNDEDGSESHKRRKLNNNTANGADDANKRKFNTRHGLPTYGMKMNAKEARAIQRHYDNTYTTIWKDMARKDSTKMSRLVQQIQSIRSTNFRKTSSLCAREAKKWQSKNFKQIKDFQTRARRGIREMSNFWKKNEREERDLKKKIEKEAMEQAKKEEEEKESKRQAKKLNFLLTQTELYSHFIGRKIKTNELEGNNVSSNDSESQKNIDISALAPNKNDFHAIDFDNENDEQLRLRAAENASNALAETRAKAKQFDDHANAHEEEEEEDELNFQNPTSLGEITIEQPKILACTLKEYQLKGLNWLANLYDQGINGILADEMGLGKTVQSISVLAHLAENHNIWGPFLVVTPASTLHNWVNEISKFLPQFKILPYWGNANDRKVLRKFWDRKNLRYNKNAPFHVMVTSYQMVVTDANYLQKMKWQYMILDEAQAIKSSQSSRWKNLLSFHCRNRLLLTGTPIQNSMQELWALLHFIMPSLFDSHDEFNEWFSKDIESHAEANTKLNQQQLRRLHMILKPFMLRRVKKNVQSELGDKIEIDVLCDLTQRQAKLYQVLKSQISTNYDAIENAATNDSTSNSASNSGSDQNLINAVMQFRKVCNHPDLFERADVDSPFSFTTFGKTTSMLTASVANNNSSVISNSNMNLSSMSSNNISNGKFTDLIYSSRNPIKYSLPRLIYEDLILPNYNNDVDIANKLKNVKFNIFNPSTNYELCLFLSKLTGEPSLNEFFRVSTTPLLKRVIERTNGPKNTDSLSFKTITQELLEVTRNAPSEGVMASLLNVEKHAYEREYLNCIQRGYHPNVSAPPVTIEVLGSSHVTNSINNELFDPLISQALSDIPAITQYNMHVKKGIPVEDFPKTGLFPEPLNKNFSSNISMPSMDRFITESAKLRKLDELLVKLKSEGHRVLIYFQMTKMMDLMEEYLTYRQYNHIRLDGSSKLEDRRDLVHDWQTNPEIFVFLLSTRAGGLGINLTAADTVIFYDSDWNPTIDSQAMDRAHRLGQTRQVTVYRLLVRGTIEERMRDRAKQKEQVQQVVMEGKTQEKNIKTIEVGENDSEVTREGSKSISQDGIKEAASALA

binding: binds
B1: lys20-cat (lys20-E155A) (enzyme, UniProt P48570 1-428)
chain: MTAAKPNPYAAKPGDYLSNVNNFQLIDSTLREGEQFANAFFDTEKKIEIARALDDFGVDYIELTSPVASEQSRKDCEAICKLGLKAKILTHIRCHMDDAKVAVETGVDGVDVVIGTSKFLRQYSHGKDMNYIAKSAVEVIEFVKSKGIEIRFSSADSFRSDLVDLLNIYKTVDKIGVNRVGIADTVGCANPRQVYELIRTLKSVVSCDIECHFHNDTGCAIANAYTALEGGARLIDVSVLGIGERNGITPLGGLMARMIVAAPDYVKSKYKLHKIRDIENLVADAVEVNIPFNNPITGFCAFTHKAGIHAKAILANPSTYEILDPHDFGMKRYIHFANRLTGWNAIKARVDQLNLNLTDDQIKEVTAKIKKLGDVRSLNIDDVDSIIKNFHAEVSTPQVLSAKKNKKNDSDVPELATIPAAKRTKPSA

binding: binds
B2: lys20-moon (lys20-V399-I418Δ) (enzyme, UniProt P48570)
chain: MTAAKPNPYAAKPGDYLSNVNNFQLIDSTLREGEQFANAFFDTEKKIEIARALDDFGVDYIELTSPVASEQSRKDCEAICKLGLKAKILTHIRCHMDDAKVAVETGVDGVDVVIGTSKFLRQYSHGKDMNYIAKSAVEVIEFVKSKGIEIRFSSEDSFRSDLVDLLNIYKTVDKIGVNRVGIADTVGCANPRQVYELIRTLKSVVSCDIECHFHNDTGCAIANAYTALEGGARLIDVSVLGIGERNGITPLGGLMARMIVAAPDYVKSKYKLHKIRDIENLVADAVEVNIPFNNPITGFCAFTHKAGIHAKAILANPSTYEILDPHDFGMKRYIHFANRLTGWNAIKARVDQLNLNLTDDQIKEVTAKIKKLGDVRSLNIDDVDSIIKNFHAEVSTPQPAAKRTKPSA
